Results reported in the supplement of paper PMC6414424.
Counter-ions that a name gives are not always drawn. ± gives the standard deviation of the averaged measurements. The list shows a part of the results.

system: APPdp1-6 iPSC-derived neurons; test: pThr231Tau/total Tau ratio Z-score vs DMSO vehicle wells; higher = more pThr231Tau relative to total Tau; settings: 5 µM; treatment time 5 days

Structure (SMILES)	pThr231Tau/total Tau ratio Z-score
CCN(CC)C(=S)SSC(=S)N(CC)CC [Prestw-97]	-0.293 ± 1.2
C/C(=C(\CCOP(=O)(O)O)SC(=O)c1ccccc1)N(C=O)Cc1cnc(C)nc1N [Prestw-654]	0.279 ± 0.0051
CC1(C)O[C@@H]2C[C@H]3[C@@H]4CCC5=CC(=O)C=C[C@]5(C)[C@H]4[C@@H](O)C[C@]3(C)[C@]2(C(=O)CO)O1 [DESONIDE, antiinflammatory, glucocorticoid]	1.61 ± 1.1
CCN(CC)CCOc1ccc2c(c1)C(=O)c1cc(OCCN(CC)CC)ccc1-2 [TILORONE    Therap cat: antiviral]	-0.123 ± 0.21
O=C(CCCCCCC(=O)Nc1ccccc1)NO [Prestw-1362]	-2.52 ± 2.2
NC[C@H]1O[C@H](O[C@H]2[C@H](O)[C@@H](O[C@H]3O[C@H](CO)[C@@H](O)[C@H](N)[C@H]3O)[C@H](N)C[C@@H]2N)[C@H](O)[C@@H](O)[C@@H]1O [Prestw-394]	1.07 ± 0.4
CC[C@H]1OC(=O)C[C@@H](O)[C@H](C)[C@@H](O[C@@H]2O[C@H](C)[C@@H](O[C@H]3C[C@@](C)(O)[C@@H](O)[C@H](C)O3)[C@H](N(C)C)[C@H]2O)[C@@H](CC=O)C[C@@H](C)C(=O)/C=C/C(C)=C/[C@@H]1CO[C@@H]1O[C@H](C)[C@@H](O)[C@@H](OC)[C@H]1OC [Prestw-1353]	-0.14 ± 0.82
C[C@]12C[C@H](O)[C@H]3[C@@H](CCC4=CC(=O)CC[C@@]43C)[C@@H]1CC[C@@H]2C(=O)CO [Prestw-432]	-1.17 ± 0.098
CN(C)CCn1nnnc1SCC1=C(C(=O)O)N2C(=O)[C@@H](NC(=O)Cc3csc(N)n3)[C@H]2SC1 [Prestw-482]	0.152 ± 0.96
CN(C)CCn1nnnc1SCC1=C(C(=O)O)N2C(=O)[C@@H](NC(=O)Cc3csc(N)n3)[C@H]2SC1 [Prestw-832]	0.125 ± 0.34
CC(C)CCCC(C)N (stereo not drawn) [OCTODRINE, vasoconstrictor, anesthetic (local)]	0.564 ± 0.066
COc1cc(C2Oc3cc([C@H]4Oc5cc(O)cc(O)c5C(=O)[C@@H]4O)ccc3OC2CO)ccc1O (stereo partly drawn)	0.93 ± 0.56
CC(=O)N[C@@H](CS)C(=O)O [Prestw-1206]	0.509 ± 0.94
CC(=O)O[C@H]1C[C@@]2(C)[C@@H](C[C@@H](O)[C@H]3[C@@]4(C)CC[C@@H](O)[C@@H](C)[C@@H]4CC[C@@]32C)/C1=C(\CCC=C(C)C)C(=O)O [Prestw-390]	0.358 ± 1.3
CCN(CC)CCOC(=O)c1ccc(N)cc1 [Prestw-41]	-0.282 ± 0.19
Cc1c(C)c2c(c(C)c1O)CCC(C)(C(=O)O)O2 (stereo not drawn) [Prestw-530]	1.71 ± 0.29
CC[C@H](C)C(=O)O[C@H]1C[C@@H](C)C=C2C=C[C@H](C)[C@H](CC[C@@H]3C[C@@H](O)CC(=O)O3)[C@H]21 [Prestw-516]	-2.96 ± 1.3
CCCCNc1cc(C(=O)O)cc(S(N)(=O)=O)c1Oc1ccccc1 [Prestw-276]	-0.359 ± 0.84
CNC(=O)c1c(I)c(C(=O)NCC(=O)Nc2c(I)c(C(=O)O)c(I)c(C(=O)NCCO)c2I)c(I)c(N(C)C(C)=O)c1I [Prestw-1062]	-1.14 ± 2
CC(=O)Oc1ccccc1C(=O)Oc1ccccc1C(=O)O [Prestw-98]	-0.683 ± 1.6
CC(C)n1c(/C=C/C(O)CC(O)CC(=O)O)c(-c2ccc(F)cc2)c2ccccc21 (stereo not drawn) [Prestw-859]	-2.74 ± 1
NC(=O)OCC(COC(N)=O)c1ccccc1 [Anticonvulsant; glutamate receptor antagonist]	0.0574 ± 1.5
C[C@H]1NC(=O)NC1=O [Prestw-864]	0.0882 ± 0.12

Structure (SMILES)	pThr231Tau/total Tau ratio Z-score
Cc1ccnc(NS(=O)(=O)c2ccc(N)cc2)n1 [Prestw-694]	-1.23 ± 0.31
Nc1ccc(S(=O)(=O)Nc2cnc3ccccc3n2)cc1 [Prestw-731]	-0.508 ± 0.19
CNC[C@H](O)[C@@H](O)[C@H](O)[C@H](O)CO [Prestw-884]	-0.165 ± 1.5
NCCCC(O)(P(=O)(O)O)P(=O)(O)O [Prestw-1210]	0.563 ± 0.9
NS(=O)(=O)c1cc(Cl)c(Cl)c(S(N)(=O)=O)c1 [Prestw-809]	0.904 ± 0.14
O=C(O)c1ccc(S(=O)(=O)N(Cl)Cl)cc1 [HALAZONE    Therap cat: disinfectant]	0.353 ± 0.25
O=C(Oc1ccccc1C(=O)O)c1ccccc1O [SALSALATE, analgesic]	0.779 ± 0.31
COc1c(C)c2c(c(O)c1C/C=C(\C)CCC(=O)O)C(=O)OC2	-0.0747 ± 1
Nc1ccc(C(=O)O)cc1 [p-Aminobenzoic acid]	0.876 ± 0.18
CCN1CCCC(OC(=O)C(c2ccccc2)c2ccccc2)C1 (stereo not drawn) [Prestw-1055]	0.24 ± 0.98
Cc1onc(-c2c(F)cccc2Cl)c1C(=O)N[C@@H]1C(=O)N2[C@@H]1SC(C)(C)[C@@H]2C(=O)O [Prestw-1011]	1.29 ± 0.12
NCCNCCNCCN [TRIENTINE HYDROCHLORIDE, chelating agent]	0.47 ± 1.6
CN(C)CCCSC(=N)N [Prestw-983]	-0.414 ± 0.22
O=C(NCCN1CCOCC1)c1ccc(Cl)cc1 [Prestw-353]	1.2 ± 0.91
CN(C/C=C/c1ccccc1)Cc1cccc2ccccc12 [Prestw-1063]	-0.575 ± 0.018
CN1C(=O)OC(C)(C)C1=O [Prestw-515]	0.21 ± 0.75
OCCN1CCN(CCCN2c3ccccc3C=Cc3ccccc32)CC1 [Prestw-1456]	-0.257 ± 0.43
C[C@H]1O[C@@H](n2cc(F)c(=O)[nH]c2=O)[C@H](O)[C@@H]1O	1.53 ± 1.4
C[C@@H](O)[C@H]1C(=O)N2C(C(=O)O)=C(S[C@@H]3CN[C@H](C(=O)N(C)C)C3)[C@H](C)[C@H]12 [Prestw-1106]	0.0304 ± 1.6
CC(=O)O[C@H]1C[C@@H]2CC[C@@H]3[C@H](CC[C@@]4(C)[C@H]3C[C@H]([N+]3(C)CCCCC3)[C@@H]4OC(C)=O)[C@@]2(C)C[C@@H]1N1CCCCC1 [Prestw-1359]	0.692 ± 0.41
Cc1cc(C)cc(OCC2CNC(=O)O2)c1 (stereo not drawn) [METAXALONE    Therap cat: skeletal muscle relaxant]	0.198 ± 0.54
CC1(C)O[C@@H]2C[C@H]3[C@@H]4CCC5=CC(=O)CC[C@]5(C)[C@@]4(F)[C@@H](O)C[C@]3(C)[C@]2(C(=O)CCl)O1 [Prestw-655]	1.25 ± 0.18
C[C@]12C=CC(=O)C=C1CC[C@H]1[C@@H]3C[C@@H](O)[C@](O)(C(=O)CO)[C@@]3(C)C[C@H](O)[C@@]12F [Prestw-120]	1.77 ± 1.8

Structure (SMILES)	pThr231Tau/total Tau ratio Z-score
C[C@@H]1O[C@@H](OC[C@H]2O[C@@H](Oc3c(-c4ccc(OCCO)c(OCCO)c4)oc4cc(OCCO)cc(O)c4c3=O)[C@H](O)[C@@H](O)[C@@H]2O)[C@H](O)[C@H](O)[C@H]1O	0.461 ± 0.64
CCN(CC)C(=O)/C(C#N)=C/c1cc(O)c(O)c([N+](=O)[O-])c1 [Prestw-1403]	0.595 ± 0.17
CC[C@H]1OC(=O)C[C@@H](O)[C@H](C)[C@@H](O[C@@H]2O[C@H](C)[C@@H](O)[C@H](N(C)C)[C@H]2O)[C@@H](CCN2C[C@H](C)C[C@H](C)C2)C[C@@H](C)C(=O)/C=C/C(C)=C/[C@@H]1CO[C@@H]1O[C@H](C)[C@@H](O)[C@@H](OC)[C@H]1OC [TILMICOSIN, antibacterial]	-0.163 ± 0.39
CNCCCC12CCC(c3ccccc31)c1ccccc12 [Prestw-346]	-0.916 ± 0.95
CCCCCC(=O)O[C@]1(C(C)=O)CC[C@H]2[C@@H]3CCC4=CC(=O)CC[C@]4(C)[C@H]3CC[C@@]21C [HYDROXYPROGESTERONE CAPROATE    Therap cat:   Progestogen]	1.56 ± 1.4
C[C@@H]1C[C@H]2[C@@H]3C[C@H](F)C4=CC(=O)C=C[C@]4(C)[C@@]3(Cl)[C@@H](O)C[C@]2(C)[C@H]1C(=O)COC(=O)C(C)(C)C [Prestw-1119]	0.899 ± 0.46
CCN(CC)CCNC(=O)c1ccc(NC(C)=O)cc1	0.942 ± 0.63
CNC[C@H](O)c1cccc(O)c1 [Phenylephrine]	1.74 ± 2.8
CNC(=C[N+](=O)[O-])NCCSCc1ccc(CN(C)C)o1 [Prestw-201]	0.0261 ± 0.82
COC(=O)[C@H]1[C@H]2C[C@@H]3c4[nH]c5cc(OC)ccc5c4CCN3C[C@H]2C[C@@H](OC(=O)c2cc(OC)c(OC)c(OC)c2)[C@@H]1OC [Prestw-875]	-0.788 ± 0.26
N[C@H](Cc1ccccc1)C(=O)O [D-PHENYLALANINE    Therap cat: antidepressant]	0.509 ± 0.085
CCOC(=O)Nc1ccc2c(c1)N(C(=O)CCN1CCOCC1)c1ccccc1S2 [Prestw-1051]	-0.987 ± 0.75
CN=C(NC#N)NCCSCc1nc[nH]c1C [Prestw-26]	3.62 ± 2.9
C#C[C@]1(O)CC[C@H]2[C@@H]3CCc4cc(OC)ccc4[C@H]3CC[C@@]21C [Prestw-846]	-0.417 ± 1.4
CC(C)NCC(O)c1ccc(NS(C)(=O)=O)cc1 (stereo not drawn) [Prestw-966]	-0.076 ± 0.26
CC(=O)N1CCN(c2ccc(OCC3COC(Cn4ccnc4)(c4ccc(Cl)cc4Cl)O3)cc2)CC1 (stereo not drawn) [Prestw-389]	-0.445 ± 0.67
CCN(CC)CCCC(C)Nc1c2ccc(Cl)cc2nc2ccc(OC)cc12 (stereo not drawn) [Prestw-318]	-0.519 ± 0.24
O=C(O)P(=O)(O)O [FOSCARNET    Therap cat: antiviral]	2.2 ± 1.9
CCCCCCCCCCCCCCCC[N+](C)(C)CCN(Cc1ccc(OC)cc1)c1ncccn1 [Prestw-925]	-2.65 ± 0.056
NS(=O)(=O)c1ccc(C(=O)O)cc1	1.1 ± 0.64
CO[C@H]1C[C@@H]2CC[C@@H](C)[C@@](O)(O2)C(=O)C(=O)N2CCCC[C@H]2C(=O)O[C@H]([C@H](C)C[C@@H]2CC[C@@H](O)[C@H](OC)C2)CC(=O)[C@H](C)/C=C(\C)[C@@H](O)[C@@H](OC)C(=O)[C@H](C)C[C@H](C)/C=C/C=C/C=C/1C	-0.00798 ± 1.8
CO[C@@]1(NC(=O)C(C(=O)O)c2ccc(O)cc2)C(=O)N2C(C(=O)O)=C(CSc3nnnn3C)CO[C@@H]21 (stereo partly drawn) [Prestw-819]	-1.01 ± 1.9

Retrieved one by one from the entries so far, 6 records:
Structure (SMILES)	pThr231Tau/total Tau ratio Z-score
CN=C(NC#N)NCCSCc1nc[nH]c1C [Prestw-26]	3.62 ± 2.9
CNC(=C[N+](=O)[O-])NCCSCc1ccc(CN(C)C)o1 [Prestw-201]	0.0261 ± 0.82
C#C[C@]1(O)CC[C@H]2[C@@H]3CCc4cc(OC)ccc4[C@H]3CC[C@@]21C [Prestw-846]	-0.417 ± 1.4
CNC[C@H](O)c1cccc(O)c1 [Phenylephrine]	1.74 ± 2.8
CCOC(=O)Nc1ccc2c(c1)N(C(=O)CCN1CCOCC1)c1ccccc1S2 [Prestw-1051]	-0.987 ± 0.75
CO[C@@]1(NC(=O)C(C(=O)O)c2ccc(O)cc2)C(=O)N2C(C(=O)O)=C(CSc3nnnn3C)CO[C@@H]21 (stereo partly drawn) [Prestw-819]	-1.01 ± 1.9
